Experimental data: PubChem BioAssay AID1259261 (Sanger Institute, 2017)
Here is an unselected part of 794 reagents tested. In the full data, 10 (1.3%) are marked active. 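Calls reflect knock-down alone without drug; synergy scores with BYL719, cetuximab or trametinib do not affect calls.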 Not all columns of the deposit are shown. The record does not give: the amount of reagent, the time to read-out.

Assay: 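Kinase knock-downs that kill colorectal cancer cells or boost targeted drugs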 (primary screen)
System: HCC2998 human colorectal cancer cells
Knock-down reagent: siRNA pool against human genes
Challenge: anchor drugs BYL719 1 µM, cetuximab 5 µg/ml or trametinib 10 nM, each compared with DMSO vehicle
Measurement: 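Cell viability relative to non-targeting siRNA, averaged over replicates, with robust z-score for siRNA alone and synergy scores with each anchor drug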
Scale: viability z-score, knock-down alone: higher = more viable cells than controls
Rule for the call: 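a knock-down is called essential if its robust z-score without drug is under -3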
Calls: active = essential; inactive = no change

EPHA7 | viability z-score, knock-down alone = -1.32; activity call = inactive
DLG4 | viability z-score, knock-down alone = 1; activity call = inactive
TSSK4 | viability z-score, knock-down alone = -0.914; activity call = inactive
TPD52L3 | viability z-score, knock-down alone = 1.13; activity call = inactive
AK2 | viability z-score, knock-down alone = 0.709; activity call = inactive
MUSK | viability z-score, knock-down alone = -2.8; activity call = inactive
CSNK1G2 | viability z-score, knock-down alone = -0.0738; activity call = inactive
GRK7 | viability z-score, knock-down alone = -0.128; activity call = inactive
CDKN1C | viability z-score, knock-down alone = 1.21; activity call = inactive
CDK11B | viability z-score, knock-down alone = -0.649; activity call = inactive
DTYMK | viability z-score, knock-down alone = 0.319; activity call = inactive
RIOK3 | viability z-score, knock-down alone = 1.17; activity call = inactive

Copied from the list.
For “activity call”, CSNK1G2 has inactive
Under “viability z-score, knock-down alone”, DTYMK has 0.319
